{"source": "patent US20240096469A1", "about": "“METHODS OF PREDICTING RESPONSES TO DISEASE TREATMENTS” (Wisconsin Alumni Research Foundation, priority 2022, published 2024)", "origin": "cited, not measured here", "system": "FLT3 wild-type AML", "conditions": "FLT3 wild-type AML treated with Midostaurin", "note": "At least one compound was matched to its structure with a doubt left."}
{"smiles": "CO[C@@H]1[C@H](N(C)C(=O)c2ccccc2)C[C@H]2O[C@]1(C)n1c3ccccc3c3c4c(c5c6ccccc6n2c5c31)C(=O)NC4", "note": "[Midostaurin]", "values": [{"measurement": "complete response rate", "value": "up to 74%"}]}
